Results are given in words; binding and its absence hold for the method and conditions named. In cells and extracts the contact can be indirect. Some binding calls cover weakened binding; strength is not graded here. Where a sequence is shown, tags or fusion partners need not be part of it.

In assay [1] the target is T1, Mic60-FLAG (S. cerevisiae) (UniProt P36112).
T1 sequence: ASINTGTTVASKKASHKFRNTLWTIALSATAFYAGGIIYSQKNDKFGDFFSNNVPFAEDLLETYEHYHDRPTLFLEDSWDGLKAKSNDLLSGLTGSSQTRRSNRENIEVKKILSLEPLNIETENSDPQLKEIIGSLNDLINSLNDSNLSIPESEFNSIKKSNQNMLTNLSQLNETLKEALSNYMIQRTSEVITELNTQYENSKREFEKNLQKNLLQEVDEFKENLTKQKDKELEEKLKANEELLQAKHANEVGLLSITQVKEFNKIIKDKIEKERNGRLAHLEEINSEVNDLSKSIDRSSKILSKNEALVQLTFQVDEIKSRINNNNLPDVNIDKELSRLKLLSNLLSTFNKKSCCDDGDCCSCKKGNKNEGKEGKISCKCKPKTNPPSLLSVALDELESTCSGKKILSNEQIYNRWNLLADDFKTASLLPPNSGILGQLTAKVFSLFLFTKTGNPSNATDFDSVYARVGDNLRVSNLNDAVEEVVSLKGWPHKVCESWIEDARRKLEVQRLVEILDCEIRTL
Nature of the assay: co-IP; ∆MICOS cells expressing Mic60-FLAG at the MIC60 locus and pMic60-EGFP from the ura3 locus; cleared lysate cross-linked with 1 mM DSP, solubilised with 1% digitonin; purified with α-FLAG antibody and protein G beads or with α-GFP MicroBeads; Western blot. For orientation: A western blot detects proteins with antibodies after separation by electrophoresis.

Assay [2] concerns the target T2, Mic60-EGFP (S. cerevisiae) (UniProt P36112).
T2 sequence: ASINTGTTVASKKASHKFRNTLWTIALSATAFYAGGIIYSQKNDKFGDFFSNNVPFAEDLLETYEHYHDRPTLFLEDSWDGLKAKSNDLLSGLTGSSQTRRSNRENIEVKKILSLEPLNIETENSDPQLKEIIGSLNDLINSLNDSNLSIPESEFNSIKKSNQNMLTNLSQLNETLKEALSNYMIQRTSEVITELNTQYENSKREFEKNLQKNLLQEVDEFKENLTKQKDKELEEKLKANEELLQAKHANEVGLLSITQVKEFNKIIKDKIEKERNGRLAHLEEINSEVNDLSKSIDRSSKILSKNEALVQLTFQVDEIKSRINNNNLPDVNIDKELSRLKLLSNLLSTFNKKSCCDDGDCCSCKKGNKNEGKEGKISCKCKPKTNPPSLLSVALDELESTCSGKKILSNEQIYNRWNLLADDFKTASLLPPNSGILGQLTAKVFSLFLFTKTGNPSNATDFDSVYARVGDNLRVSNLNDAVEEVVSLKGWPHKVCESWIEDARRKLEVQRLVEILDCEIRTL
The description is as above.

B1: Mic60-EGFP (protein, UniProt P36112 18-540)
chain: ASINTGTTVASKKASHKFRNTLWTIALSATAFYAGGIIYSQKNDKFGDFFSNNVPFAEDLLETYEHYHDRPTLFLEDSWDGLKAKSNDLLSGLTGSSQTRRSNRENIEVKKILSLEPLNIETENSDPQLKEIIGSLNDLINSLNDSNLSIPESEFNSIKKSNQNMLTNLSQLNETLKEALSNYMIQRTSEVITELNTQYENSKREFEKNLQKNLLQEVDEFKENLTKQKDKELEEKLKANEELLQAKHANEVGLLSITQVKEFNKIIKDKIEKERNGRLAHLEEINSEVNDLSKSIDRSSKILSKNEALVQLTFQVDEIKSRINNNNLPDVNIDKELSRLKLLSNLLSTFNKKSCCDDGDCCSCKKGNKNEGKEGKISCKCKPKTNPPSLLSVALDELESTCSGKKILSNEQIYNRWNLLADDFKTASLLPPNSGILGQLTAKVFSLFLFTKTGNPSNATDFDSVYARVGDNLRVSNLNDAVEEVVSLKGWPHKVCESWIEDARRKLEVQRLVEILDCEIRTL
As to B1, the binding result in assay [1] is “binds”.

B2: Mic60-FLAG (protein, UniProt P36112 18-540)
chain: ASINTGTTVASKKASHKFRNTLWTIALSATAFYAGGIIYSQKNDKFGDFFSNNVPFAEDLLETYEHYHDRPTLFLEDSWDGLKAKSNDLLSGLTGSSQTRRSNRENIEVKKILSLEPLNIETENSDPQLKEIIGSLNDLINSLNDSNLSIPESEFNSIKKSNQNMLTNLSQLNETLKEALSNYMIQRTSEVITELNTQYENSKREFEKNLQKNLLQEVDEFKENLTKQKDKELEEKLKANEELLQAKHANEVGLLSITQVKEFNKIIKDKIEKERNGRLAHLEEINSEVNDLSKSIDRSSKILSKNEALVQLTFQVDEIKSRINNNNLPDVNIDKELSRLKLLSNLLSTFNKKSCCDDGDCCSCKKGNKNEGKEGKISCKCKPKTNPPSLLSVALDELESTCSGKKILSNEQIYNRWNLLADDFKTASLLPPNSGILGQLTAKVFSLFLFTKTGNPSNATDFDSVYARVGDNLRVSNLNDAVEEVVSLKGWPHKVCESWIEDARRKLEVQRLVEILDCEIRTL
Take B2: the binding entry in assay [2] is recorded as “binds”.
